These results are taken from paper PMC12914539.

Protein sequences, listed by entry. Tags and fused reporters are not part of them.
UniProt P30051: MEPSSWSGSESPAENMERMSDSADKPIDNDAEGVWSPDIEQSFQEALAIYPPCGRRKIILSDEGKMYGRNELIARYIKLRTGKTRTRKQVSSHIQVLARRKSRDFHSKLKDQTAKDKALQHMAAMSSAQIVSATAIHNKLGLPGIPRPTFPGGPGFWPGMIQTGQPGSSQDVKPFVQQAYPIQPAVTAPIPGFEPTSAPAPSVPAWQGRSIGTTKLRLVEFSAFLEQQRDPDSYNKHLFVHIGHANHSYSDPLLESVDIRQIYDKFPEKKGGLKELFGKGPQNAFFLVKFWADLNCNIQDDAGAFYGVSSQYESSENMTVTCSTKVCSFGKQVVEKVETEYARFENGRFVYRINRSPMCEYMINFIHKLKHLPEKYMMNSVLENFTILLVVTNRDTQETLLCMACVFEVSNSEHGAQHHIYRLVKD
UniProt P46938: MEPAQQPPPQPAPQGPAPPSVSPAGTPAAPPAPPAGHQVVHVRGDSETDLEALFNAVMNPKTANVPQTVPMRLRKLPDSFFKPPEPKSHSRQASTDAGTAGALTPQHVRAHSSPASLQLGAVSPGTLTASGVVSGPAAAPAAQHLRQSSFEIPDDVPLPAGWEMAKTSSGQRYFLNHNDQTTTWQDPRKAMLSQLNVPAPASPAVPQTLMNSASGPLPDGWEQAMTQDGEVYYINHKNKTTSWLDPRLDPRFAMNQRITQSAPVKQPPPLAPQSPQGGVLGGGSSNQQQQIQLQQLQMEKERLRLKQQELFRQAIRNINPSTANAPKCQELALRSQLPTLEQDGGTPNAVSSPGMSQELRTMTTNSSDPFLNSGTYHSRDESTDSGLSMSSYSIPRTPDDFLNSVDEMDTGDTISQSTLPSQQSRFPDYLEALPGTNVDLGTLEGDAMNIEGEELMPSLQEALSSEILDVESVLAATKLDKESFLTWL

These are yes or no findings as the source states them, for the method shown. Binding seen in cells or lysates may run through a third protein. Some results given as binding are weak or reduced against the parent protein; the word gives no strength.

For the experiment, the target named is TEAD1 (UniProt P30051). The experiment can be described thus: co-IP; co-IP of TEAD1 and YAP1, with and without rNRG4 treatment; cells and bait not stated.

With YAP1 (from UniProt P46938 1-488), the binding entry was “binds”.
